Earlier results in patent publication US20160250142A1, “INHALED AEROSOLIZED IMMUNO-CHEMOTHERAPY FOR THE TREATEMENT OF MDR TB” (priority 2013, published 2016).
For at least one compound, name, drawing or mass did not settle the structure.

Test system: TB (Mycobacterium tuberculosis)
Details: reported for reference only; metronidazole MIC not established for TB; cited from earlier work

Q: Which “Reported MIC” value does the source give for `C[C@H]1COc2c(N3CCN(C)CC3)c(F)cc3c(=O)c(C(=O)O)cn1c23` [Levofloxacin] here?
A: Its value is 0.03 μg/mL (30 ng/mL).
